Data as given in publication PMC7819943, “Rice protein-binding microarrays: a tool to detect cis-acting elements near promoter regions in rice”.
Some of the results follow.

What follows are sequences tested against T1, OsSMF1 (Oryza sativa, UniProt Q6ZLB0 1-436) (assay: protein-binding microarray (RPBM); PBS, 2% BSA, 51.3 ng/ul salmon testes DNA, 50 uM zinc acetate, 200 nM TF, 25 C, 1 h; high values mean tight binding). Settings: protein: recombinant; tags: N-terminal polyhistidine and DsRed monomer fusion (pET32a); chain copies: 2; label: CyDye5-dUTP incorporated in the synthesized complementary strand; 3' TTTTT single-stranded linker to array surface; dsDNA, one strand shown.
T1 sequence: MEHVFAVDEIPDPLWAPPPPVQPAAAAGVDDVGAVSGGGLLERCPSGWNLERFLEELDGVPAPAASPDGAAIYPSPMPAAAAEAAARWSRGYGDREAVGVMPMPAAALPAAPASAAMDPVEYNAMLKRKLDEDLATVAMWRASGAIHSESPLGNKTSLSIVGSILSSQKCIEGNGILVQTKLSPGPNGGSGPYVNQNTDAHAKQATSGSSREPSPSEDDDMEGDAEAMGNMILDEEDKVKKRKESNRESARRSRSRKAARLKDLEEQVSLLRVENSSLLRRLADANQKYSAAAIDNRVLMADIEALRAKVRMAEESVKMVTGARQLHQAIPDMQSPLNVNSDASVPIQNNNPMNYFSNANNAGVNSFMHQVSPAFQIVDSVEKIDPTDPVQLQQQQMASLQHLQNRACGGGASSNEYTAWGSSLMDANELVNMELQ
Summary of the method: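 The binding signal for each feature is its fluorescence intensity in arbitrary units. An Axon 4000B scanner was used to read a custom Agilent array that had been made double-stranded with Cy5-dUTP primer extension, blocked with 2% BSA, incubated at 25 °C for 1 h with 200 nM protein in PBS, 2% BSA, salmon testes DNA and 50 µM zinc acetate, and washed. The protein was an N-terminal polyhistidine–DsRed transcription factor fusion from E. coli BL21-CodonPlus, purified on Ni–NTA.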

Sequence | binding signal
CTGTAGCAAATTAGAAGCAAAAGTGTTAGTTCAAATTGTGCGGAGTCACCTAGTGCAG | 3320 fluorescence intensity (a.u.)
CTCGTTTCTGTCTCGTACGTGCATGGGTCGATGATGACCACGGAGTCACCTAGTGCAG | 3820 fluorescence intensity (a.u.)
GGTCCATGGTAATGGTGTAGTCGTGGTGGTTTTGTTTCTCCGGAGTCACCTAGTGCAG | 3980 fluorescence intensity (a.u.)
TCAGCTAGTCTCCTTTATGCAATTTCTTTTATCTTCTCTTCGGAGTCACCTAGTGCAG | 26400 fluorescence intensity (a.u.)
AATTTGTAGAACTTGTCGATTGTAAACCGTAGGATCGAGCCGGAGTCACCTAGTGCAG | 15700 fluorescence intensity (a.u.)
TTGGGTGGCGTGCGTCATCCACAGTAGCCGTCGTTGCGTCCGGAGTCACCTAGTGCAG | 12200 fluorescence intensity (a.u.)
AATTAAATGAACCCATCGTCATCAAGCACTAAGGTCGGCACGGAGTCACCTAGTGCAG | 3540 fluorescence intensity (a.u.)
TGAATACGTCCGGAATCGGTATGGGCGATGCTATCTCCTCCGGAGTCACCTAGTGCAG | 3400 fluorescence intensity (a.u.)
AGCTGGTCACTGTCTTGCTGCTGCTGATATCATCAGCACGCGGAGTCACCTAGTGCAG | 3660 fluorescence intensity (a.u.)
TTTACTGAAGGACTATCTGATATCCAGTTTATCCACATCACGGAGTCACCTAGTGCAG | 3340 fluorescence intensity (a.u.)
TAGTAGATAGCTTTGCTCTCTCTCTTCATTTAATATATTCCGGAGTCACCTAGTGCAG | 4540 fluorescence intensity (a.u.)
GCGGCGCGCGTGGGGAGGAGAGGACGGGCGGCTAGGGTTTCGGAGTCACCTAGTGCAG | 3320 fluorescence intensity (a.u.)
CAAACTTTGCACCTCTCTTTGCCGAGATGACACATGCTTTCGGAGTCACCTAGTGCAG | 5430 fluorescence intensity (a.u.)
GCCACTTTCACAAAGGAAAACAAAAGATAGGTGAGTCGGACGGAGTCACCTAGTGCAG | 4340 fluorescence intensity (a.u.)
TTACATCGCGGGAGGCGTCTGTCCGTGTCACGCACTGACCCGGAGTCACCTAGTGCAG | 3510 fluorescence intensity (a.u.)
CTGCAAAAGTATAAGAATCAGTAAATTCTTGCCGTGTAGACGGAGTCACCTAGTGCAG | 28500 fluorescence intensity (a.u.)
GAAGTGGCGGCCCTTGGCGGAGAGAATGGCATGGCGAGAGCGGAGTCACCTAGTGCAG | 65100 fluorescence intensity (a.u.)
TCGCCGCGCGGCTTGCCGTGACACCGTGACACGCCATCTTCGGAGTCACCTAGTGCAG | 8540 fluorescence intensity (a.u.)
GGATCGACCGGCTTTTGGCTGACAGGCGATGGCTAGAGCACGGAGTCACCTAGTGCAG | 5780 fluorescence intensity (a.u.)
GAAAATACGCCTTCGACAGCAGCTGACGTATTCCTCGCTTCGGAGTCACCTAGTGCAG | 5660 fluorescence intensity (a.u.)
GAGGTGGAAATGGGAGGGGAAGAAGAGGCTGACATGGTGACGGAGTCACCTAGTGCAG | 3980 fluorescence intensity (a.u.)

Eight neighbouring records already listed:
Sequence | binding signal
CTGTAGCAAATTAGAAGCAAAAGTGTTAGTTCAAATTGTGCGGAGTCACCTAGTGCAG | 3320 fluorescence intensity (a.u.)
CTCGTTTCTGTCTCGTACGTGCATGGGTCGATGATGACCACGGAGTCACCTAGTGCAG | 3820 fluorescence intensity (a.u.)
GGTCCATGGTAATGGTGTAGTCGTGGTGGTTTTGTTTCTCCGGAGTCACCTAGTGCAG | 3980 fluorescence intensity (a.u.)
TCAGCTAGTCTCCTTTATGCAATTTCTTTTATCTTCTCTTCGGAGTCACCTAGTGCAG | 26400 fluorescence intensity (a.u.)
AATTTGTAGAACTTGTCGATTGTAAACCGTAGGATCGAGCCGGAGTCACCTAGTGCAG | 15700 fluorescence intensity (a.u.)
TTGGGTGGCGTGCGTCATCCACAGTAGCCGTCGTTGCGTCCGGAGTCACCTAGTGCAG | 12200 fluorescence intensity (a.u.)
AATTAAATGAACCCATCGTCATCAAGCACTAAGGTCGGCACGGAGTCACCTAGTGCAG | 3540 fluorescence intensity (a.u.)
TGAATACGTCCGGAATCGGTATGGGCGATGCTATCTCCTCCGGAGTCACCTAGTGCAG | 3400 fluorescence intensity (a.u.)

Carrying on:

Sequence | binding signal
ACCACACCAACCAAATATGGTTGCGTTATTTCGTCACGCTCGGAGTCACCTAGTGCAG | 3510 fluorescence intensity (a.u.)
GGATCTCTTGCGTCCGCCTCCGCCGTGCGACCTCCGCATTCGGAGTCACCTAGTGCAG | 3350 fluorescence intensity (a.u.)
GGCTGCCACCTCCGTTGCCGCGCCACCCTCGCCGCCGCAACGGAGTCACCTAGTGCAG | 3910 fluorescence intensity (a.u.)
CTAAGCCAACCAGTCGATATCATCGCCGTCATATTCAGCACGGAGTCACCTAGTGCAG | 3410 fluorescence intensity (a.u.)
CTCACGGTTACGTGCCGAGATTCTCTTCTGCCACGTTGCACGGAGTCACCTAGTGCAG | 7340 fluorescence intensity (a.u.)
AACCGGTGAAACGTCCGATGTGGCATAGAAAATTTTATTTCGGAGTCACCTAGTGCAG | 3210 fluorescence intensity (a.u.)
ACATCTACTTGTGATATTCTGAAGTCATCATCCATAGTCACGGAGTCACCTAGTGCAG | 4710 fluorescence intensity (a.u.)
CTACCCCGATTTATCCCGACGGCCACGCCACCCCACCTCTCGGAGTCACCTAGTGCAG | 4220 fluorescence intensity (a.u.)
TAAAGGAGAAAATACGTCATTCTAAGTAGCGGATCACACACGGAGTCACCTAGTGCAG | 3540 fluorescence intensity (a.u.)
CCTTCGTCGCTATGCCGTGGCGATCCCTGCAAAATCAAAGCGGAGTCACCTAGTGCAG | 3580 fluorescence intensity (a.u.)
CGTGCACATCCTCGTCAGCTTCGTCGTCCACCACCGTCGACGGAGTCACCTAGTGCAG | 5750 fluorescence intensity (a.u.)
GTCTCCCACTCTCTCGCTACTGCCACCGCGGCGCCCCGCGCGGAGTCACCTAGTGCAG | 4720 fluorescence intensity (a.u.)
CGACCGACCCTCGCCCGCCCACCGCCGTCACTCTCGTCTGCGGAGTCACCTAGTGCAG | 3920 fluorescence intensity (a.u.)
ATGCAGCCTCGACGCTTACTGTCACCACGATCGCATTCACCGGAGTCACCTAGTGCAG | 3570 fluorescence intensity (a.u.)
GGTTCGCTCTCTCCGTCTCTCTGCTATGCCCCTCTCTTTCCGGAGTCACCTAGTGCAG | 15500 fluorescence intensity (a.u.)
TGCGTCTCACCAGTCGCGCGAGCGAGCCGCGTGACGCGGTCGGAGTCACCTAGTGCAG | 4370 fluorescence intensity (a.u.)
ATCGAGCGAGCGCGATATGATTGCATCATCGATCGAGCTCCGGAGTCACCTAGTGCAG | 3680 fluorescence intensity (a.u.)
TTTCAAAATATTCAGTTTGAGAATATGTAAATCTTATGGGCGGAGTCACCTAGTGCAG | 20100 fluorescence intensity (a.u.)
AATCTACTTCCTCCGTTTTATGTTATAAGACTTTCTAGCACGGAGTCACCTAGTGCAG | 3140 fluorescence intensity (a.u.)
CAAGGACAGGGGCTCCAATCAGGCAGGCATGCATGCATGCCGGAGTCACCTAGTGCAG | 4370 fluorescence intensity (a.u.)
CGTAGGATGGTTCAGTCTTAGAACATGGTCAGTTAGGGGACGGAGTCACCTAGTGCAG | 16300 fluorescence intensity (a.u.)
